From patent US5863763A (British Technology Group Ltd., priority 1994, dated 1999)
For some assays here: Not every detail of the peptide structures is certain; ends, links or a residue may be inferred. For some assays here: The name of at least one read-out is uncertain. Square brackets hold non-standard residues; d marks the D form. Ends that are not written are not given here. Peptide text beside a SMILES is read from it. Hyp = O=C(O)[C@@H]1C[C@@H](O)CN1

Assays:
hindgut of C. vomitoria = test: Inhibition of peristalsis of the hindgut (ileum) of C. vomitoria; design: species or system Calliphora vomitoria; settings: biphasic dose-response curve, second value
Description: Adult female C. vomitoria were fed sugar, water and meat for 7 days prior to studying the effect of synthetic peptides (Affinity Research Products Ltd, Nottingham) on gut motility. The stage of development of the oocytes of each fly was recorded to provide a physiological base line. The gut and reproductive system were transferred to a 100-μl Sylgard chamber (Sylgard 184, Dow Corning) and bathed in a Calliphora Ringer's solution (Duve et al in Regul. Pept. 35 145-159 (1991)). Peristaltic movements of the ileum and the other forms of contraction in the rest of the gut and reproductive musculature were observed under a microscope. The preparation was superfused with several washes of Ringer's solution, after which peristaltic movements of the ileum were counted over a 2-minute period. The bathing fluid was replaced with fresh Ringer's solution containing the test peptide and the counting repeated. This procedure could be carried out many times for a single preparation.
Peptide solutions were made up in Ringer's solution on the day of the experiments, which were carried out at 22° C. Approximately 50 female flies were used.
Each point represents the mean of 5-16 measurements from a number of different vitellogenic female flies (callatostatin is abbreviated to cast in the figure).

[1] = test system: Met-callatostatin antiserum (Rabbit D1 Bleed 4); test: Radioimmunoassay for Met-callatostatin, cross-reactivity; format: binding; settings: relative to carboxy-terminally amidated Met-callatostatin

Compound	IC50 (hindgut of C. vomitoria)	level of recognition in the Met-callatostatin RIA [1]
CSCC[C@H](NC(=O)CNC(=O)[C@H](Cc1ccccc1)NC(=O)[C@H](CC(=O)O)NC(=O)[C@H](Cc1ccc(O)cc1)NC(=O)[C@@H]1C[C@@H](O)CN1C(=O)[C@@H]1CCCN1C(=O)CN)C(N)=O [[Hyp^3]Met-callatostatin, Gly-Pro-Hyp-Tyr-Asp-Phe-Gly-Met-NH2] (H-GP[Hyp]YDFGM-NH2)	500 nM	–
GPPYDFGM	–	< 0.01%
